Measurements: the supplement of paper PMC11006884
This is a selection; strong and weak results do not stand in their true shares.

The chains behind the UniProt entries cited, without tags or fusion partners. Where a name states a change or a piece, a line headed by the entry shows the natural chain unless it says otherwise.
UniProt P52306: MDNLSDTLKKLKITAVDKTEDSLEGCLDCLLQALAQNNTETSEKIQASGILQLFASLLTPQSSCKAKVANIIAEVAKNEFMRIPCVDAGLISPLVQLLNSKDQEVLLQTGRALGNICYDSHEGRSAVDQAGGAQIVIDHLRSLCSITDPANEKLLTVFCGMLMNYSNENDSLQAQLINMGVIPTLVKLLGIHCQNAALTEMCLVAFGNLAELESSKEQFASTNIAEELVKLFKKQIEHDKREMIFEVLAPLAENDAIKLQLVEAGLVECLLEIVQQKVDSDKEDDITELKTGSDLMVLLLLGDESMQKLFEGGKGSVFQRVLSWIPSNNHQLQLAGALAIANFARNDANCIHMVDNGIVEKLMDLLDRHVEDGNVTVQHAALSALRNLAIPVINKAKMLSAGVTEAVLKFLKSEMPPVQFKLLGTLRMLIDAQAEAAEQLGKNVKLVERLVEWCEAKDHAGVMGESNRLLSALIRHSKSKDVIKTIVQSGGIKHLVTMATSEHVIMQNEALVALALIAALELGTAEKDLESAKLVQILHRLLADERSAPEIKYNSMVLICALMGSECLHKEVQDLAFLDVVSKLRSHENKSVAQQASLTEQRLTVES
UniProt P57772: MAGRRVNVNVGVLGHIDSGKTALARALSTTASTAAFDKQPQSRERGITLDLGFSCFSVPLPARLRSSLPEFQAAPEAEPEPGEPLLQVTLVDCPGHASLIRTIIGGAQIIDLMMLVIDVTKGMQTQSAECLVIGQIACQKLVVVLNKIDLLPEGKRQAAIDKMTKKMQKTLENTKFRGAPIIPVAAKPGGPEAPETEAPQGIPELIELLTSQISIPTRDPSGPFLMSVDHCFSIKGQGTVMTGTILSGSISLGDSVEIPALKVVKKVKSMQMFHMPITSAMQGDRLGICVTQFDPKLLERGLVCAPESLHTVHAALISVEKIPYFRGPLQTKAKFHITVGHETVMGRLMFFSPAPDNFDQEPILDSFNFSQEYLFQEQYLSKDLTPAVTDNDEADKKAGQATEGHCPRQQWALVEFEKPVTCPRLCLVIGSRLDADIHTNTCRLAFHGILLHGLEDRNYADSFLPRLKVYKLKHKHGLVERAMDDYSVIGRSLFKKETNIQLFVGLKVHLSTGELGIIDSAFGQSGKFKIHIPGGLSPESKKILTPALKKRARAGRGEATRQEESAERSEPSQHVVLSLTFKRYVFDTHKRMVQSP
UniProt P57740: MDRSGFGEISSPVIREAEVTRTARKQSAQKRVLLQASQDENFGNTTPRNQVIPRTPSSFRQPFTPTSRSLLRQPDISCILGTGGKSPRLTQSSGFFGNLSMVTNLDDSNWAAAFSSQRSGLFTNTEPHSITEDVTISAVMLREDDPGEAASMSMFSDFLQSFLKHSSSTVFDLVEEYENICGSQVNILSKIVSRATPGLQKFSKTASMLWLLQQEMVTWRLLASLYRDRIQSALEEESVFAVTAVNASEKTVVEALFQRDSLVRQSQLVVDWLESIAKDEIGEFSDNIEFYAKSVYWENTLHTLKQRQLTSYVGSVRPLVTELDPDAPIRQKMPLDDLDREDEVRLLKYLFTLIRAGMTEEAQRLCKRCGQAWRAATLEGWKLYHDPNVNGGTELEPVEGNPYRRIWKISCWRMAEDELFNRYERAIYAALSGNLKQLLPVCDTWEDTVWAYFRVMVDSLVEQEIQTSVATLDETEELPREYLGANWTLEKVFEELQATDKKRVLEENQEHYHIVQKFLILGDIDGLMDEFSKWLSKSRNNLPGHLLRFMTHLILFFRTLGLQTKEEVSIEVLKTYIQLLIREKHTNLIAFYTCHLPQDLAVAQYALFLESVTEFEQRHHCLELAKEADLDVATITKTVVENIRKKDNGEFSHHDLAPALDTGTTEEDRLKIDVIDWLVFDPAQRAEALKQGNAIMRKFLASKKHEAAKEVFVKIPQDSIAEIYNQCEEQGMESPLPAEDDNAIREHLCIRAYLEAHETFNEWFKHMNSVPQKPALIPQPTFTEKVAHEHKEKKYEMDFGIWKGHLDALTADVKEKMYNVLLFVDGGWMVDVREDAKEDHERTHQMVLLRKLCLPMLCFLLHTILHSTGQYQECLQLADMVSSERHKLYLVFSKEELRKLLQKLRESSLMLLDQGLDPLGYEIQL
UniProt P51858: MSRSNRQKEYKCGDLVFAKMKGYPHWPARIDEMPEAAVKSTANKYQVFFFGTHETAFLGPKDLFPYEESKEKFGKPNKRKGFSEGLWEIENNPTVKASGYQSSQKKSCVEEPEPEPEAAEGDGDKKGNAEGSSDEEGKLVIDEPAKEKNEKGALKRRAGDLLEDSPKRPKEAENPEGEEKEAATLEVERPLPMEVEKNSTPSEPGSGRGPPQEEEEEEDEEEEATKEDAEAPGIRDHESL
UniProt P54198, whole entry, looked up: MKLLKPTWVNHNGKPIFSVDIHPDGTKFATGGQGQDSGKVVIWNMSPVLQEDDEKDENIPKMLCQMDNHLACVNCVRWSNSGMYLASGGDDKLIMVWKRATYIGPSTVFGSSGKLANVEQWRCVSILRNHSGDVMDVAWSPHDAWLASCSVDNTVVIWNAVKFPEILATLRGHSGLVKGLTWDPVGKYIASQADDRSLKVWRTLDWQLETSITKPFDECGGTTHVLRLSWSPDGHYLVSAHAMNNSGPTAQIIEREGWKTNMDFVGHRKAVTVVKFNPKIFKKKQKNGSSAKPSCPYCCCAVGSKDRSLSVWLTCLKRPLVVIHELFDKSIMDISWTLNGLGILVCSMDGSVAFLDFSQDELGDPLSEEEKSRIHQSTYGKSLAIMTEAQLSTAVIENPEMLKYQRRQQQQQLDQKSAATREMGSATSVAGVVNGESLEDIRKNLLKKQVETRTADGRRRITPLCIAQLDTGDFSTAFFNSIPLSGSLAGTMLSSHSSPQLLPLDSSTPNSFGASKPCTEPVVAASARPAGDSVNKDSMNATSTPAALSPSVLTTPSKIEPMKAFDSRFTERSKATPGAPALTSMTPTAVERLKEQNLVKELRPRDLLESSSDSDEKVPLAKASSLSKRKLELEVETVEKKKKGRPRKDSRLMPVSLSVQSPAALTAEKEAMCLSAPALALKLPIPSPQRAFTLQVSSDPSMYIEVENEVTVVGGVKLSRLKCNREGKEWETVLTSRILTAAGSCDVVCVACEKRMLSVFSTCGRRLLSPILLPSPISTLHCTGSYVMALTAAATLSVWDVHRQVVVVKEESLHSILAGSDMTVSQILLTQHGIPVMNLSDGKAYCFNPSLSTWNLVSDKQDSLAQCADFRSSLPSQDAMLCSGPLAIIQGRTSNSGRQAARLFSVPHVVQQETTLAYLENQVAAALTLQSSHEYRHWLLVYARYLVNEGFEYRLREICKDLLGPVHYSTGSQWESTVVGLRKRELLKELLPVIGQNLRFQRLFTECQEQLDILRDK
UniProt P52209: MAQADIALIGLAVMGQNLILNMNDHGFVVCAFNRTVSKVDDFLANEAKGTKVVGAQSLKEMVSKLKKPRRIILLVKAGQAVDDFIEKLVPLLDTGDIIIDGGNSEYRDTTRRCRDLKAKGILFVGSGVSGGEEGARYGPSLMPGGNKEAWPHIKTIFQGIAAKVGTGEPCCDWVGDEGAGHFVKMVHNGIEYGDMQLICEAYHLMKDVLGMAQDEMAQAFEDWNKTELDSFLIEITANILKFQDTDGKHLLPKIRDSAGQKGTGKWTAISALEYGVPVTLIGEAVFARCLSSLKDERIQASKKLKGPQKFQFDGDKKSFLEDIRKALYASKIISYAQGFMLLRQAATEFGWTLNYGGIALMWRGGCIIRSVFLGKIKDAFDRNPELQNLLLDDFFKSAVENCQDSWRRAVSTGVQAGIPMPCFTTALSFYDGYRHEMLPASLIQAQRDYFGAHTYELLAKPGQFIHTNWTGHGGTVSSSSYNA
UniProt P55199: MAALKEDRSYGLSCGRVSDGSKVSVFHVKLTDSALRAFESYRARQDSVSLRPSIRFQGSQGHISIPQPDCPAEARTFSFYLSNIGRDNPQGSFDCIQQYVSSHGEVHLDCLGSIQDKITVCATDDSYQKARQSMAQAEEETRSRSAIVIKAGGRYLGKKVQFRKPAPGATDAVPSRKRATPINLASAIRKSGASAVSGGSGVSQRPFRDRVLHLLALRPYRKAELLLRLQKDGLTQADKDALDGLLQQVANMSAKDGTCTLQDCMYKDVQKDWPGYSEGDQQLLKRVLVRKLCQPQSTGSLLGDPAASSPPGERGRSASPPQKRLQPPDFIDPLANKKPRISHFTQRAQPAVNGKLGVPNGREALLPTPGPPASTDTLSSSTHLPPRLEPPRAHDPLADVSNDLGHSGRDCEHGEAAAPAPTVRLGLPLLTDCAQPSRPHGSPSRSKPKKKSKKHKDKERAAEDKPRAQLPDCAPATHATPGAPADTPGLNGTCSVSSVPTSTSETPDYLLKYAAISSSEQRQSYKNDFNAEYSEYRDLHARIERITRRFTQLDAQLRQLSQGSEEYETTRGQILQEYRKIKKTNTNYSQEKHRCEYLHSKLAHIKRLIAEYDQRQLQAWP
UniProt P52597: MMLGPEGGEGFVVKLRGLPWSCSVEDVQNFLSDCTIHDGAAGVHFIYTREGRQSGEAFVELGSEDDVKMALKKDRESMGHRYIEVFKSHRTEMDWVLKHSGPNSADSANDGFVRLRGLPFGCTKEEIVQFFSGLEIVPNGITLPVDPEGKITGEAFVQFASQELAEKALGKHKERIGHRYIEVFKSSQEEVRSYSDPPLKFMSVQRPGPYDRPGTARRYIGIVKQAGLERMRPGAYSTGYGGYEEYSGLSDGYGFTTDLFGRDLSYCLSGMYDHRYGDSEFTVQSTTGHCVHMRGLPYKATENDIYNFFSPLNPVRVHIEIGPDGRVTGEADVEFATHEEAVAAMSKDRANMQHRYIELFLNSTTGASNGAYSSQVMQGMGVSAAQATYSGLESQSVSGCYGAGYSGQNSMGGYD
UniProt P54132: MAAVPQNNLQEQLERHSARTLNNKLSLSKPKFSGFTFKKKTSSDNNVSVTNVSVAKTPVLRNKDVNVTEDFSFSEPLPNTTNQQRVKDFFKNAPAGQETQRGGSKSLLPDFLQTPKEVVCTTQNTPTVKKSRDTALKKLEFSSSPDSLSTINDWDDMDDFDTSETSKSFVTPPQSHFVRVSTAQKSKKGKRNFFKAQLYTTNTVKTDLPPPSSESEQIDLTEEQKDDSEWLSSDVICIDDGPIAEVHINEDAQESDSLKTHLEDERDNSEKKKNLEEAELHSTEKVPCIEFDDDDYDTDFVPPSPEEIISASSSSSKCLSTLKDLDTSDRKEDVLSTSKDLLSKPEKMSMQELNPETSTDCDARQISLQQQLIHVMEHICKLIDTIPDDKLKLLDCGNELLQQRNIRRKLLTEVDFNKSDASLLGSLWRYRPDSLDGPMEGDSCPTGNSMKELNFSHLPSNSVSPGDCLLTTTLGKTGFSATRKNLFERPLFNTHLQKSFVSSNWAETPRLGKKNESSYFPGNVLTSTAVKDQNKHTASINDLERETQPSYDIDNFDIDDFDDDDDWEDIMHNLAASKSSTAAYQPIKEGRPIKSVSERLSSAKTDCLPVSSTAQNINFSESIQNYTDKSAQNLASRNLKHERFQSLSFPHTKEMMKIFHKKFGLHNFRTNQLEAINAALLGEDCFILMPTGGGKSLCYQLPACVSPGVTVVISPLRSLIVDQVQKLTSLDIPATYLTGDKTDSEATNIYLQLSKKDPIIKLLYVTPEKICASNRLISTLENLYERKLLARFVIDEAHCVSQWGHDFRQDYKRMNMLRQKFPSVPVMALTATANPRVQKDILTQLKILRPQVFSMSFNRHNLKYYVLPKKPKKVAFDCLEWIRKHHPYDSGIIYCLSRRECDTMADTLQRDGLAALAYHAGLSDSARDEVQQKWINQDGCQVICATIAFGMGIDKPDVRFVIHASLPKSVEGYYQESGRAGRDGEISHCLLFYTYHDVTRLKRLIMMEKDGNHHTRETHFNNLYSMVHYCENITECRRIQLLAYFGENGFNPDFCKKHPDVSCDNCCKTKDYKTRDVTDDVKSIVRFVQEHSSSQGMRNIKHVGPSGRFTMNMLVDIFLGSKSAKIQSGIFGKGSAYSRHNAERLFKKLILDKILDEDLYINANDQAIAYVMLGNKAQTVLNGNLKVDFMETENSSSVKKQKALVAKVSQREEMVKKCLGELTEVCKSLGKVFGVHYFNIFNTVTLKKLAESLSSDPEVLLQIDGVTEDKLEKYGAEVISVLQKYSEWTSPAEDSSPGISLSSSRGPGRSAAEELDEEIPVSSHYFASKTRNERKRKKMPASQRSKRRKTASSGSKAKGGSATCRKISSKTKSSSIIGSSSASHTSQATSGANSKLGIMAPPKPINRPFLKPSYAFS

compound: COC(=O)C#Cc1ccccc1 [methyl 3-phenylpropiolate]; experiment: log2 ratio of iodoacetamide-alkyne labeling of the cysteine site, DMSO over compound (competition); higher = stronger covalent engagement of the cysteine by the compound, active = 1 or more; settings: 500 µM; treatment time 1 h; system: HEK293T cell lysate
Procedure, shortened: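 After 1 h at ambient temperature with vehicle or electrophile (500 µM), HEK293T lysate (2 mg/mL) was labelled for 1 h with iodoacetamide alkyne and clicked to sCIP-TMT reagents. Pooled samples were trypsin-digested overnight at 37 °C, streptavidin-enriched, acid-eluted and analysed by Orbitrap Eclipse LC-MS/MS with FAIMS, then quantified in FragPipe over three replicates with duplicate channels. A cysteine's log2 competition ratio is its mean control-channel over mean compound-channel reporter intensity. Cysteines quantified in only one replicate were not included.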

log2 ratio of iodoacetamide-alkyne labeling, inactive:
RAP1GDS1 C85 (UniProt P52306) 0.197
EEFSEC C93 (UniProt P57772) 0.229
NUP107 C78 (UniProt P57740) 0.705
MSH6 C1158 (UniProt P52701) -0.0115
HDGF C108 (UniProt P51858) 0.398
EEFSEC C55 (UniProt P57772) -0.0519
MSH6 C88 (UniProt P52701) 0.154
HIRA C882 (UniProt P54198) 0.416
PGD C422 (UniProt P52209) -0.311
KPNA2 C272 (UniProt P52292) 0.0583
ELL C473 (UniProt P55199) 0.872
HNRNPF C267 (UniProt P52597) 0.208
UniProt P60866_C36 0.113
BLM C698 (UniProt P54132) 0.6

Nothing new here: entries from further up.
log2 ratio of iodoacetamide-alkyne labeling, inactive:
EEFSEC C93 (UniProt P57772) 0.229
NUP107 C78 (UniProt P57740) 0.705
